Some peptides are written in HELM: one residue between dots, names in brackets for other building blocks, links after the first $.
Assay: general procedure: Fmoc solid-phase peptide synthesis
[1] = whole synthesis, LCMS (crude), RP-HPLC or LCMS (purified), scale of the general procedure 0.05 mmol or 0.1 mmol

## PEPTIDE1{C.V.T.H.R.L.A.G.L.L.S.R.S.G.G.V.V.K.N.N.F.V.P.T.N.V.G.S.K.A.F.[am]}$$$$V2.0
Purification step
  step yield: 34%
[1]
  crude LC-MS purity: 31%
  final HPLC purity: 97%
Whole synthesis, based on 31% purity, scale of the general procedure 0.05 mmol or 0.1 mmol
  crude yield: 10%
Whole synthesis, scale 0.05 mmol
  crude mass: 49.53 mg

Reference: patent US20200353088A1 (Auckland UniServices Limited, priority 2017, published 2020)
